According to patent US20090048117A1, “MODULATION OF IMMUNE SYSTEM FUNCTION BY MODULATION OF POLYPEPTIDE ARGININE METHYLTRANSFERASES” (President and Fellows of Harvard College, priority 2003, published 2009):

What was measured:
[1] = target: NFATp expressed from an NFATp expression plasmid; experiment: immunoprecipitation/Western blot from HepG2 cells
[2] = target: NFATp expressed from an NFATp expression plasmid; experiment: co-immunoprecipitation with anti-NFATp antibody from transfected HepG2 cells, anti-HA Western blot

B1: HA-tagged NIP45 polypeptide (expression vector NIP45-HA, pCEP4-HA) (protein, not shown: small tags and cut ends)
chain: MAEPLRGRGPRSRGGRGARRARGARGRCPRARQSPARLIPDTVLVDLVSDSDEEVLEVADPVEVPVARLPAPAKPEQDSDSDSEGAAEGPAGAPRTLVRRRRRRLLDPGEAPVVPVYSGKVQSSLNLIPDNSSLLKLCPSEPEDEADLTNSGSSPSEDDALPSGSPWRKKLRKKCEKEEKKMEEFPDQDISPLPQPSSRNKSRKHTEALQKLREVNKRLQDLRSCLSPKQHQSPALQSTDDEVVLVEGPVLPQSSRLFTLKIRCRADLVRLPVRMSEPLQNVVDHMANHLGVSPNRILLLFGESELSPTATPSTLKLGVADIIDCVVLASSSEATETSQELRLRVQGKEKHQMLEISLSPDSPLKVLMSHYEEAMGLSGHKLSFFFDGTKLSGKELPADLGLESGDLIEVWG
- binding [1]: binds
- binding [2]: binds

These are yes or no findings as the source states them, for the method shown. Binding can be weak; no strength is given. Where a sequence is shown, tags or fusion partners need not be part of it. For some assays here: Binding seen in cells or lysates may run through a third protein.
